Laboratory results taken from article PMC11109624, “Celastrol Ameliorates Neuronal Mitochondrial Dysfunction Induced by Intracerebral Hemorrhage via Targeting cAMP‐Activated Exchange Protein‐1” (Advanced Science, 2024).

By UniProt entry, the sequences of proteins in these tests, tags left out. Where a name states a change or a piece, a line headed by the entry shows the natural chain unless it says otherwise.
UniProt Q60932: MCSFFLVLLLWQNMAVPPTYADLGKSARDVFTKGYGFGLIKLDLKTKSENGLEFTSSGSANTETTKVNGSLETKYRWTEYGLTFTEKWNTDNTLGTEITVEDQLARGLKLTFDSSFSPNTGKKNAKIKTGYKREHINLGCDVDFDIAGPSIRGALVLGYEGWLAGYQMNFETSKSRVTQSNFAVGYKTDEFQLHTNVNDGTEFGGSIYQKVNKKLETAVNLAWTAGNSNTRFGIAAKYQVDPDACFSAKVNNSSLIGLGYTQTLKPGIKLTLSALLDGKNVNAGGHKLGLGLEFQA
UniProt Q8VCC8: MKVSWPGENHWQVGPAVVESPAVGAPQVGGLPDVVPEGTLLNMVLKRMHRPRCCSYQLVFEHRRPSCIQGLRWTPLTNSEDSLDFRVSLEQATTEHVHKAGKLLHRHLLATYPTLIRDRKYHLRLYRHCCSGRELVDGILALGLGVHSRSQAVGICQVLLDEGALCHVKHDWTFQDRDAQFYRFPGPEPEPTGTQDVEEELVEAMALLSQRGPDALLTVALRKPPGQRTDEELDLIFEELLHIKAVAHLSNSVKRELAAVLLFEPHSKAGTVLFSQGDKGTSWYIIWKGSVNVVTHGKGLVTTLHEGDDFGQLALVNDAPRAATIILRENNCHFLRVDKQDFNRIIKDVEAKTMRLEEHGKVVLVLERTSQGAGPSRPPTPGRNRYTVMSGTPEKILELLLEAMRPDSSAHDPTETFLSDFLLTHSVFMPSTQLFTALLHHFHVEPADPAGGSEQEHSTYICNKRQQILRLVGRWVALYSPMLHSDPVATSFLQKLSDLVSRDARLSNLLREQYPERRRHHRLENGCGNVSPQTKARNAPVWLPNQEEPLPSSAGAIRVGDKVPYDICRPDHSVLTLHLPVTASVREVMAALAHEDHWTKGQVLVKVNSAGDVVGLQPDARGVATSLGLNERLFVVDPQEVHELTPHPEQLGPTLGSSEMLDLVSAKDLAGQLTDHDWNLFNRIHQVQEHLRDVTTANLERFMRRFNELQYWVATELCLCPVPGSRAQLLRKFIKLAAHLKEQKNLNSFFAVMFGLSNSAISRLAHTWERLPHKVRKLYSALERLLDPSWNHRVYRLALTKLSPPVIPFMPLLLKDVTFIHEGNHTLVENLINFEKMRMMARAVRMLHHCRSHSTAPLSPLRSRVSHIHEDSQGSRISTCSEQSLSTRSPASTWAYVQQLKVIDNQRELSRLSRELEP

Molecular target: voltage-dependent anion-selective channel protein 1 (VDAC1), endogenous in mouse cortex (mouse (endogenous in mouse cortex)) (UniProt Q60932)
Assay: co-IP; cortex samples surrounding the hematoma of mice, sham and ICH 24 h groups; incubated overnight at 4 °C with IgG (negative control) or antibody (1 µg), protein A/G agarose beads 4 h at 4 °C, western blot; which protein was precipitated is not told

binding: binds
Substance: cAMP-activated exchange protein-1 (EPAC-1), endogenous in mouse cortex (from UniProt Q8VCC8 1-918)

No constants are given. Whether binding was seen depends on the method and setting. Binding seen in cells or lysates may run through a third protein. A result given as binding can be weak or reduced; the word gives no strength.
